Structures can show the parent of a compound that is named as a salt. For at least one compound, name, drawing or mass did not settle the structure.
Target: T1, E. coli RecA protein (Escherichia coli, UniProt P0A7G6)
T1 construct: purchased Epicentre, Madison, Wis
Experiment: High throughput RecA-luciferase assay (ATP remaining after RecA ATPase reaction)
Type: biochemical
Conditions: compounds identified from the screen of more than 22,000 compounds
Method: RecA is a DNA-dependent ATPase (i.e., it catalyzes the reaction adenosine triphosphate [ATP]→adenosine diphosphate [ADP]). An assay was developed for RecA ATPase activity based on detection of the amount of ATP remaining in a reaction mixture following incubation of RecA protein, DNA, and ATP. In an exemplary assay, E. coli RecA protein is incubated in reaction buffer with DNA, ATP, and any test compound or compounds for a measured amount of time. The quantity of ATP remaining after the RecA reaction can be quantitated using a subsequent luciferase assay. The luciferase emits more light as more ATP is available. In some embodiments, the amount of ATP remaining can be compared to controls containing either a known inhibitor (full inhibition control) or no test compound (full activity control). […] Percent inhibition can be calculated according to the following equation: […]
An in vitro RecA-luciferase assay was used to screen for RecA inhibitors. […] The quantity of ATP remaining after the RecA reaction was measured by a subsequent luciferase assay. […]
The mix was incubated at room temperature for about 90-120 minutes. […] The luminescence of the reaction was measured.
A positive control (having no DNA added to the well) and negative control (having DNA and no compounds) were run with each screen. […] Percent inhibition can be calculated according to the following equation: […]

By UniProt entry, the sequences of proteins in these tests, tags left out. Residues count along the entry.
UniProt P0A7G6, 2-353: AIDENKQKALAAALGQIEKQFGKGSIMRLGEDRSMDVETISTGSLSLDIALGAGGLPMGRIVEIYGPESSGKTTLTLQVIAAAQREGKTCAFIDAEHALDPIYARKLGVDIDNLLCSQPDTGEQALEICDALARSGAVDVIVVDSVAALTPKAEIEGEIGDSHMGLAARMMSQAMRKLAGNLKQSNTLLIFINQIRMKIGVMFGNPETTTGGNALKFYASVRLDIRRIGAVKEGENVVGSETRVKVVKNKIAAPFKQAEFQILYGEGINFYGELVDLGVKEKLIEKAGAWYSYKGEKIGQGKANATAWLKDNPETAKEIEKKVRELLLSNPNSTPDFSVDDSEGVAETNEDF

## O=C1c2c(O)ccc(O)c2C(=O)c2c(NCCNCCO)ccc(NCCNCCO)c21 [mitoxantrone dihydrochloride]
  activity in the RecA-luciferase screen (in words): particularly active

Reference: US20110015137A1, “RECA INHIBITORS AND THEIR USES AS MICROBIAL INHIBITORS OR POTENTIATORS OF ANTIBIOTIC ACTIVITY” (Trustees of Boston University, priority 2007, published 2011)
